These results are taken from patent US20160368985A1.

Test [1] concerns the target T1, soluble human FcRH5 protein fragment (human) (UniProt Q96RD9).
T1 sequence: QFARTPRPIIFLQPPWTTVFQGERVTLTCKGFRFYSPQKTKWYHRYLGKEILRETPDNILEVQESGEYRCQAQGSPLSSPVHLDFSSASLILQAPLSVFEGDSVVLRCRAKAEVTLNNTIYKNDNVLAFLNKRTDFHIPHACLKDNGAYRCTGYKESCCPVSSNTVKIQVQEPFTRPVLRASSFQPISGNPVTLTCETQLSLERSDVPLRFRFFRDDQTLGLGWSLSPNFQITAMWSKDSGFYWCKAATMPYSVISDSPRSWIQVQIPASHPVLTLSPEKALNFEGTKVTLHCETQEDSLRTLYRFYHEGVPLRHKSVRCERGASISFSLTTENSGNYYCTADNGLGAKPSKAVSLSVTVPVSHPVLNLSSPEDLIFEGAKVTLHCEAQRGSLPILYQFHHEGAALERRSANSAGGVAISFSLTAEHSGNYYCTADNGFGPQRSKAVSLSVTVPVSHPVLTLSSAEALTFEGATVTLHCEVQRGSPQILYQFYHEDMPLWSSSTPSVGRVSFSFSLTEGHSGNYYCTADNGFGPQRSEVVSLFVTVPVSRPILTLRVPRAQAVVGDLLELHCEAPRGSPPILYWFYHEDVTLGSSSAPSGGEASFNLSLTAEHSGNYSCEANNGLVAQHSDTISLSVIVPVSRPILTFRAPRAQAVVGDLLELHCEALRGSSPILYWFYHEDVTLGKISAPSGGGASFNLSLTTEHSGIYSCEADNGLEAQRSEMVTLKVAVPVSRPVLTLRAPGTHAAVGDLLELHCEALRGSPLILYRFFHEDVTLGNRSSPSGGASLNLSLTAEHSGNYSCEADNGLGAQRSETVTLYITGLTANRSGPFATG
The test can be described thus: BIACORE.

The target in test [2] is T1, soluble human FcRH5 protein fragment (human). Nature of the test: BIACORE after AAPH or light stress. In general terms: In SPR one partner is held on a chip, and binding of the other changes the refractive index at the surface.
Test [3] shares this target. The test can be described thus: ELISA. (In general: ELISA stands for enzyme-linked immunosorbent assay.)

Changes are numbered by the printed parent chain. These are yes or no findings as the source states them, for the method shown. Some entries that bind do so weakly or less than the wild type.

B1: hu1G7.v85/38E4.v1 TDB (bispecific antibody, V domains shown)
VH 1: EVQLVESGPGLVKPSETLSLTCTVSGFSLTRFGVHWVRQPPGKGLEWLGVIWRGGSTDYNAAFVSRLTISKDNSKNQVSLKLSSVTAADTAVYYCSNHYYGSSDYALDNWGQGTLVTVSS
VL 1: DIQMTQSPSSLSASVGDRVTITCKASQDVRNLVVWFQQKPGKAPKLLIYSGSYRYSGVPSRFSGSGSGTDFTLTISSLQPEDFATYYCQQHYSPPYTFGQGTKVEIK
VH 2: EVQLVQSGAEVKKPGASVKVSCKASGFTFTSYYIHWVRQAPGQGLEWIGWIYPENDNTKYNEKFKDRVTITADTSTSTAYLELSSLRSEDTAVYYCARDGYSRYYFDYWGQGTLVTVSS
VL 2: DIVMTQSPDSLAVSLGERATINCKSSQSLLNSRTRKNYLAWYQQKPGQSPKLLIYWTSTRKSGVPDRFSGSGSGTDFTLTISSLQAEDVAVYYCKQSFILRTFGQGTKVEIK
Take B1: the binding result in test [1] and in test [2] was “binds” each time.

B2: F(ab′)2 A (1G7.v85 Fab x 38E4.v1 Fab linked at the hinge Cys) (bispecific antibody, V domains shown)
VH 1: B1 VH 1
VL 1: B1 VL 1
VH 2: B1 VH 2
VL 2: B1 VL 2
modifications: hinge Cys crosslinked
In the case of B2, the binding result in test [3] is given as “binds”.

B3: hu1G7.v93/38E4.v1 TDB (bispecific antibody, V domains shown)
VH 1: B1 VH 1 with L29T, S103P
VL 1: B1 VL 1 with R30S
VH 2: B1 VH 2
VL 2: B1 VL 2
On to B3, for which the binding result in test [1] is listed as “binds”.
